The values that follow come from article PMC10119927, “Compact Rotaxane Superbases” (Journal of the American Chemical Society, 2023).

A short description of this series: Base-mediated elimination of HBr from 4-bromophenethyl bromide: deprotonation kinetics and protonation vs alkylation. To be noted: for formation of eliminated product 9a: reaction times of over a week at 25 °C.

SMILES strings stand for the structures.

Consider `C1COCCOCCOCCOCCOCCOCCO1.FC(F)(F)c1cc(CNCc2cc(C(F)(F)F)cc(C(F)(F)F)c2)cc(C(F)(F)F)c1` [21C7⊂3], for which the “formation of eliminated product 9a” value is “only traces”. Also, under “final time 168 hours (80 °C)”, the Superbase conversion was determined as 3%.

Consider `C1COCCOCCOCCOCCOCCOCCO1.Cc1cc(C)cc(CNCc2cc(C)cc(C)c2)c1` [21C7⊂6], for which the Superbase conversion (final time 1 hour (25 °C)) was 100%.

In the case of `C1COCCOCCOCCOCCOCCOCCOCCO1.CC(C)(C)c1cc(CNCc2cc(C(C)(C)C)cc(C(C)(C)C)c2)cc(C(C)(C)C)c1` [24C8⊂2], the “formation of eliminated product 9a” value was “only traces”. The Superbase conversion (final time 168 hours (80 °C)) is 37%.

The molecule `C1COCCOCCOCCOCCOCCOCCOCCO1.FC(F)(F)c1cc(CNCc2cc(C(F)(F)F)cc(C(F)(F)F)c2)cc(C(F)(F)F)c1` [24C8⊂3] returned a Superbase conversion (final time 16 hours (25 °C)) of 7%.

In turn, `C1CCC2=NCCCN2CC1` [DBU, 1,8-diazabicyclo(5.4.0)undec-7-ene, reference compound] had a Superbase conversion (final time 168 hours (25 °C)) of 17%.

Take `CN(C)P(=NC(C)(C)C)(N(C)C)N(C)C` [P1-^tBu, tert-butylimino-tris(dimethylamino)phosphorane, reference compound]: the Superbase conversion (final time 120 hours (25 °C)) was 21%.
